Reference: paper PMC5766592
These are yes or no findings as the source states them, for the method shown. Binding seen in cells or lysates may run through a third protein. Binding can be weak; no strength is given. Tags and fused reporters may be left off the sequences shown.

How the values were obtained:
Assay in all cases: co-IP; soluble extracts of co-transfected HEK293 cells; IP with anti-Flag M2-agarose beads overnight at 4 °C; co-IP buffer 50 mM HEPES pH 7.4, 120 mM NaCl, 5 mM EDTA, 10% glycerol, 1% Triton X-100; immunoblot; in one panel cells treated with or without sodium orthovanadate (1 mM) and H2O2 (0.2 mM)
[1] = target: Flag-tagged murine SOCS3 truncation mutant ΔC40 (murine)
[2] = target: Flag-tagged murine SOCS3 truncation mutant ΔC84 (murine)
[3] = target: Flag-tagged murine SOCS3 truncation mutant ΔN20 (murine)
[4] = target: Flag-tagged murine SOCS3 truncation mutant ΔN36 (murine)

Measured: binding

B1: N-terminally GFP-tagged murine cavin-1 (protein, UniProt O54724 1-392)
chain: MEDVTLHIVERPYSGFPDASSEGPEPTQGEARATEEPSGTGSDELIKSDQVNGVLVLSLLDKIIGAVDQIQLTQAQLEERQAEMEGAVQSIQGELSKLGKAHATTSNTVSKLLEKVRKVSVNVKTVRGSLERQAGQIKKLEVNEAELLRRRNFKVMIYQDEVKLPAKLSVSKSLKESEALPEKEGDELGEGERPEDDTAAIELSSDEAVEVEEVIEESRAERIKRSGLRRVDDFKKAFSKEKMEKTKVRTRENLEKTRLKTKENLEKTRHTLEKRMNKLGTRLVPVERREKLKTSRDKLRKSFTPDHVVYARSKTAVYKVPPFTFHVKKIREGEVEVLKATEMVEVGPEDDEVGAERGEATDLLRGSSPDVHTLLEITEESDAVLVDKSDSD
binds: all assays above
